# Laboratory results as given in PubChem BioAssay AID222 (DTP/NCI, 2004).
# The list shows only some results of the screen, not a fair sample: it gathers tests that were run many times, whatever their T/C, doses with no T/C, and many T/C values between a quarter and a half above the control. Other doses and runs of a compound stand elsewhere. T/C is the treated group as % of the vehicle group. Some entries give survivors of the animals treated and no T/C: the source holds a T/C of zero for them, seemingly a mark for toxic or unscored doses. Some doses without a T/C left all or most animals alive at the check, yet need not have been tolerated: the source hardly ever lists a survival T/C far under the control, and the zero likely stands for such cases as well. Counts of survivors are from the toxicity check (mostly the fifth day) where no day follows; animals may have died later. Schedule codes are those of the source, taken here to give the interval after Q, in days (D) or hours (H), and the number of doses after X. Some entries were tested several times; their values stand side by side, smallest first. Counts like (3×) give the number of equal values in this list. Some schedule codes hold Z or #, which are not explained here. For survival time, the PubChem record calls one and a half times the control and up active, and a quarter to a half above the control has no call in these data; cut-offs in other NCI protocols can differ. Some T/C values carry the count of animals alive at the toxicity check (mostly the fifth day); where none is given, no animal had died by that day.
# Tested on: C57BL/6 mice, intracerebral ependymoblastoma, median survival T/C
# Assay: NCI In Vivo Anticancer Drug Screen. Data for tumor model Ependymoblastoma (intracerebral) in C57BL/6 mice
# Details: T/C endpoint: median survival time, higher T/C = longer survival
# Experimental: The antitumor activity of compounds was measured in mice bearing transplantable tumors. Survival or tumor size were measured and the results are expressed as the measurement made in the treated group (T) divided by the measurement made in the vehicle treated control group (C). The tumor model used in this assay is Ependymoblastoma (intracerebral) in C57BL/6 mice
# [1] = dose: 64.0 mg/kg/injection, schedule: Q01DX005 (ip), vehicle: saline
# [2] = dose: 128.0 mg/kg/injection, schedule: Q01DX005 (ip), vehicle: saline
# [3] = dose: 256.0 mg/kg/injection, schedule: Q01DX005 (ip), vehicle: saline
# [4] = dose: 8.0 mg/kg/injection, schedule: Q01DX005 (ip), vehicle: saline
# [5] = dose: 16.0 mg/kg/injection, schedule: Q01DX005 (ip), vehicle: saline
# [6] = dose: 32.0 mg/kg/injection, schedule: Q01DX005 (ip), vehicle: Klucel (hydroxypropylcellulose) (HPC)
# [7] = dose: 32.0 mg/kg/injection, schedule: Q01DX005 (ip), vehicle: saline
# [8] = dose: 128.0 mg/kg/injection, schedule: Q01DX001 (ip), vehicle: saline
smiles,measurement,setting,value
C[CH2][Ge]1([CH2]C)[CH2]CC2(CCN(CCCN(C)C)C2)C[CH2]1,T/C,"dose: 16.0 mg/kg/injection, schedule: Q01DX005 (ip), vehicle: saline, evaluated on day 45",96 % of control
same,T/C,"dose: 16.0 mg/kg/injection, schedule: Q01DX005 (ip), vehicle: saline, evaluated on day 60","95 [9 of 10 alive], 97, 102 % of control"
same,T/C,"dose: 32.0 mg/kg/injection, schedule: Q01DX005 (ip), vehicle: saline, evaluated on day 45",96 % of control [9 of 10 alive]
same,T/C,"dose: 32.0 mg/kg/injection, schedule: Q01DX005 (ip), vehicle: saline, evaluated on day 60","95, 96, 97 [9 of 10 alive], 105, 113, 118 % of control"
same,T/C,"dose: 64.0 mg/kg/injection, schedule: Q01DX005 (ip), vehicle: saline, evaluated on day 45",109 % of control
same,T/C,"dose: 64.0 mg/kg/injection, schedule: Q01DX005 (ip), vehicle: saline, evaluated on day 60","93 [9 of 10 alive], 102, 103, 122 % of control"
same,survivor count,[1],2 of 10 and 8 of 10
same,survivor count,[2],"0 of 10 (2×), 1 of 10, 3 of 10"
same,survivor count,[3],0 of 10
same,survivor count,"dose: 512.0 mg/kg/injection, schedule: Q01DX005 (ip), vehicle: saline",0 of 10
C1OC1CN1CCN(CC2CO2)CC1 (stereo unspecified),survivor count,"dose: 12.5 mg/kg/injection, schedule: Q01DX005 (ip), vehicle: saline",10 of 10
same,survivor count,"dose: 50.0 mg/kg/injection, schedule: Q01DX005 (ip), vehicle: saline",9 of 10
same,survivor count,"dose: 100.0 mg/kg/injection, schedule: Q01DX005 (ip), vehicle: saline",10 of 10
O=C1NC2(CCCCC2)C(=O)N1CCN(CCCl)CCCl,T/C,"dose: 4.0 mg/kg/injection, schedule: Q01DX005 (ip), vehicle: saline, evaluated on day 45",99 % of control
same,T/C,"dose: 4.0 mg/kg/injection, schedule: Q01DX005 (ip), vehicle: saline, evaluated on day 60","93, 100, 105 % of control"
same,survivor count,"dose: 6.0 mg/kg/injection, schedule: Q01DX009 (ip), vehicle: Klucel (hydroxypropylcellulose) (HPC)",6 of 6
same,survivor count,"dose: 8.0 mg/kg/injection, schedule: Q01DX005 (ip), vehicle: Klucel (hydroxypropylcellulose) (HPC)",10 of 10
same,T/C,[4],"94 [9 of 10 alive], 101 [9 of 10 alive], 102 % of control"
same,survivor count,[4],10 of 10
same,survivor count,"dose: 12.0 mg/kg/injection, schedule: Q01DX009 (ip), vehicle: Klucel (hydroxypropylcellulose) (HPC)",6 of 6
same,survivor count,"dose: 16.0 mg/kg/injection, schedule: Q01DX005 (ip), vehicle: Klucel (hydroxypropylcellulose) (HPC)",8 of 10
same,T/C,[5],"86 [9 of 10 alive], 98, 115 % of control"
same,survivor count,[5],8 of 10
same,survivor count,"dose: 25.0 mg/kg/injection, schedule: Q01DX005 (ip), vehicle: Klucel (hydroxypropylcellulose) (HPC)",8 of 10
same,survivor count,[6],"0 of 10, 2 of 10, 10 of 10"
same,survivor count,[7],5 of 10 and 8 of 10
same,survivor count,"dose: 50.0 mg/kg/injection, schedule: Q01DX005 (ip), vehicle: Klucel (hydroxypropylcellulose) (HPC)",1 of 10
same,survivor count,"dose: 64.0 mg/kg/injection, schedule: Q01DX005 (ip), vehicle: Klucel (hydroxypropylcellulose) (HPC)",0 of 10
same,survivor count,[1],0 of 10 and 6 of 10
same,survivor count,"dose: 100.0 mg/kg/injection, schedule: Q01DX005 (ip), vehicle: Klucel (hydroxypropylcellulose) (HPC)",0 of 10
same,survivor count,[2],0 of 10 (2×)
COc1cc2cc3c4cc(OC)c(OC)cc4cc[n+]3c(C)c2cc1OC (tested in a mixture with another compound),T/C,[5],"86, 96, 101 [9 of 10 alive], 102, 103, 112 % of control"
same,T/C,[6],133 % of control
same,T/C,[7],"95, 98, 103, 108, 116 % of control (2×)"
same,T/C,"dose: 64.0 mg/kg/injection, schedule: Q01DX001 (ip), vehicle: saline","91, 96 [9 of 10 alive], 100, 101 % of control [7 of 10 alive]"
same,T/C,[1],"100, 104, 107, 109, 111, 119 % of control"
same,T/C,"dose: 64.0 mg/kg/injection, schedule: Q#A X002 (ip), vehicle: saline",132 % of control [9 of 10 alive]
same,T/C,[8],"93, 94 [6 of 10 alive], 105 % of control [9 of 10 alive]"
same,survivor count,[8],8 of 10
same,T/C,[2],103 % of control [9 of 10 alive]
same,survivor count,[2],"8 of 10, 9 of 10, 10 of 10"
same,survivor count,"dose: 256.0 mg/kg/injection, schedule: Q01DX001 (ip), vehicle: saline",8 of 10 and 10 of 10
same,survivor count,"dose: 256.0 mg/kg/injection, schedule: Q01DX005 (ip), vehicle: Klucel (hydroxypropylcellulose) (HPC)",8 of 10
same,survivor count,[3],"0 of 10, 2 of 10, 3 of 10"
same,survivor count,"dose: 512.0 mg/kg/injection, schedule: Q01DX001 (ip), vehicle: saline",1 of 10 and 2 of 10
same,survivor count,"dose: 512.0 mg/kg/injection, schedule: Q01DX005 (ip), vehicle: Klucel (hydroxypropylcellulose) (HPC)",0 of 10 and 6 of 10
same,survivor count,"dose: 512.0 mg/kg/injection, schedule: Q#A X002 (ip), vehicle: saline",2 of 10
same,survivor count,"dose: 1024.0 mg/kg/injection, schedule: Q01DX001 (ip), vehicle: saline",0 of 10 and 1 of 10
O=C(N[C@H](CO)[C@H](O)c1ccc([N+](=O)[O-])cc1)C(Cl)Cl,survivor count,"dose: 90.0 mg/kg/injection, schedule: Q01DX005 (ip), vehicle: saline with Tween-80",9 of 10
same,survivor count,"dose: 720.0 mg/kg/injection, schedule: Q01DX005 (ip), vehicle: saline with Tween-80",5 of 10
same,survivor count,"dose: 1440.0 mg/kg/injection, schedule: Q01DX005 (ip), vehicle: saline with Tween-80",0 of 10
CN(CO)c1nc(N(C)CO)nc(N(C)CO)n1,survivor count,"dose: 50.0 mg/kg/injection, schedule: Q01DX005 (ip), vehicle: saline with Tween-80",5 of 10
same,survivor count,"dose: 100.0 mg/kg/injection, schedule: Q01DX005 (ip), vehicle: saline with Tween-80",5 of 10
same,survivor count,"dose: 200.0 mg/kg/injection, schedule: Q01DX005 (ip), vehicle: saline with Tween-80",6 of 10
same,survivor count,"dose: 400.0 mg/kg/injection, schedule: Q01DX005 (ip), vehicle: saline with Tween-80",3 of 10
same,survivor count,"dose: 800.0 mg/kg/injection, schedule: Q01DX005 (ip), vehicle: saline with Tween-80",0 of 10
